Measured values published in the supplement of paper PMC8728848.
Some of the results follow.

How the values were obtained:
Experiment in all cases: glycan array binding signal (z-score within array); higher = stronger binding
Conditions in all cases: glycan notation: IUPAC condensed, linker removed
[1] = target: Fuc(a1-2)Gal(b1-4)GlcNAc(b1-3)Gal(b1-4)GlcNAc(b1-2)Man(a1-3)[Fuc(a1-2)Gal(b1-4)GlcNAc(b1-3)Gal(b1-4)GlcNAc(b1-2)Man(a1-6)]Man(b1-4)GlcNAc(b1-4)GlcNAc
Method in brief: (§1)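 The binding signal is a Z-score computed within each array and averaged over linkers. Arrays of the same protein sequence at different concentrations or buffers were also averaged together. Data originate from 3228 arrays in the Consortium for Functional Glycomics database, kept only where the protein sequence was available.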

[2] = target: Fuc(a1-2)Gal(b1-4)GlcNAc(b1-3)Gal(b1-4)GlcNAc(b1-3)Gal(b1-4)GlcNAc
Method in brief: as §1

[3] = target: Fuc(a1-2)Gal(b1-4)GlcNAc(b1-3)GalNAc
Method in brief: as §1

[4] = target: Fuc(a1-2)Gal(b1-4)GlcNAc(b1-3)[Fuc(a1-2)Gal(b1-4)GlcNAc(b1-6)]GalNAc
Method in brief: as §1

[5] = target: Fuc(a1-2)Gal(b1-4)GlcNAc(b1-3)[Fuc(a1-3)[Gal(b1-4)]GlcNAc(b1-6)]Gal(b1-4)Glc
Method in brief: as §1

[6] = target: Fuc(a1-2)Gal(b1-4)GlcNAc(b1-6)GalNAc
Method in brief: as §1

[7] = target: Fuc(a1-2)Gal(b1-4)GlcNAc6S
Method in brief: as §1

[8] = target: Fuc(a1-2)Gal(b1-4)[Fuc(a1-3)]GlcNAc
Method in brief: as §1

[9] = target: Fuc(a1-2)Gal(b1-4)[Fuc(a1-3)]GlcNAc(b1-2)Man(a1-3)[Fuc(a1-2)Gal(b1-4)[Fuc(a1-3)]GlcNAc(b1-2)Man(a1-6)]Man(b1-4)GlcNAc(b1-4)[Fuc(a1-6)]GlcNAc
Method in brief: as §1

[10] = target: Fuc(a1-2)Gal(b1-4)[Fuc(a1-3)]GlcNAc(b1-2)[Fuc(a1-2)Gal(b1-4)[Fuc(a1-3)]GlcNAc(b1-4)]Man(a1-3)[Fuc(a1-2)Gal(b1-4)[Fuc(a1-3)]GlcNAc(b1-2)Man(a1-6)]Man(b1-4)GlcNAc(b1-4)GlcNAc
Method in brief: as §1

[11] = target: Fuc(a1-2)Gal(b1-4)[Fuc(a1-3)]GlcNAc(b1-3)Gal(b1-4)[Fuc(a1-3)]GlcNAc
Method in brief: as §1

[12] = target: Fuc(a1-2)Gal(b1-4)[Fuc(a1-3)]GlcNAc(b1-3)Gal(b1-4)[Fuc(a1-3)]GlcNAc(b1-3)Gal(b1-4)[Fuc(a1-3)]GlcNAc
Method in brief: as §1

[13] = target: Fuc(a1-2)Gal(b1-4)[Fuc(a1-3)]GlcNAc(b1-3)GalNAc
Method in brief: as §1

[14] = target: Fuc(a1-2)Gal(b1-4)[Fuc(a1-3)]GlcNAc(b1-3)[Neu5Ac(a2-6)Gal(b1-4)GlcNAc(b1-6)]Gal(b1-4)Glc
Method in brief: as §1

[15] = target: Fuc(a1-2)Gal3S(b1-4)GlcNAc
Method in brief: as §1

[16] = target: Fuc(a1-2)Gal6S(b1-3)GlcNAc
Method in brief: as §1

[17] = target: Fuc(a1-2)Gal6S(b1-3)GlcNAc6S
Method in brief: as §1

Fuc(a1-2)Gal6S(b1-4)Glc = target: Fuc(a1-2)Gal6S(b1-4)Glc
Method in brief: as §1

[18] = target: Fuc(a1-2)Gal6S(b1-4)Glc6S
Method in brief: as §1

Fuc(a1-2)[Gal(a1-3)]Gal = target: Fuc(a1-2)[Gal(a1-3)]Gal
Method in brief: as §1

[19] = target: Fuc(a1-2)[Gal(a1-3)]Gal(b1-3)GalNAc
Method in brief: as §1

[20] = target: Fuc(a1-2)[Gal(a1-3)]Gal(b1-3)GalNAc(b1-3)Gal(a1-4)Gal(b1-4)Glc
Method in brief: as §1

[21] = target: Fuc(a1-2)[Gal(a1-3)]Gal(b1-3)GlcNAc
Method in brief: as §1

[22] = target: Fuc(a1-2)[Gal(a1-3)]Gal(b1-3)GlcNAc(b1-2)Man(a1-3)[Fuc(a1-2)[Gal(a1-3)]Gal(b1-3)GlcNAc(b1-2)Man(a1-6)]Man(b1-4)GlcNAc(b1-4)GlcNAc
Method in brief: as §1

[23] = target: Fuc(a1-2)[Gal(a1-3)]Gal(b1-3)GlcNAc(b1-2)Man(a1-3)[Fuc(a1-2)[Gal(a1-3)]Gal(b1-3)GlcNAc(b1-2)Man(a1-6)]Man(b1-4)GlcNAc(b1-4)[Fuc(a1-6)]GlcNAc
Method in brief: as §1

[24] = target: Fuc(a1-2)[Gal(a1-3)]Gal(b1-3)GlcNAc(b1-3)GalNAc
Method in brief: as §1

[25] = target: Fuc(a1-2)[Gal(a1-3)]Gal(b1-3)GlcNAc(b1-6)GalNAc
Method in brief: as §1

[26] = target: Fuc(a1-2)[Gal(a1-3)]Gal(b1-4)Glc
Method in brief: as §1

[27] = target: Fuc(a1-2)[Gal(a1-3)]Gal(b1-4)GlcNAc
Method in brief: as §1

[28] = target: Fuc(a1-2)[Gal(a1-3)]Gal(b1-4)GlcNAc(b1-2)Man
Method in brief: as §1

[29] = target: Fuc(a1-2)[Gal(a1-3)]Gal(b1-4)GlcNAc(b1-2)Man(a1-3)[Fuc(a1-2)[Gal(a1-3)]Gal(b1-4)GlcNAc(b1-2)Man(a1-6)]Man(b1-4)GlcNAc(b1-4)GlcNAc
Method in brief: as §1

[30] = target: Fuc(a1-2)[Gal(a1-3)]Gal(b1-4)GlcNAc(b1-2)Man(a1-3)[Fuc(a1-2)[Gal(a1-3)]Gal(b1-4)GlcNAc(b1-2)Man(a1-6)]Man(b1-4)GlcNAc(b1-4)[Fuc(a1-6)]GlcNAc
Method in brief: as §1

[31] = target: Fuc(a1-2)[Gal(a1-3)]Gal(b1-4)GlcNAc(b1-3)GalNAc
Method in brief: as §1

[32] = target: Fuc(a1-2)[Gal(a1-3)]Gal(b1-4)GlcNAc(b1-3)[Fuc(a1-2)[Gal(a1-3)]Gal(b1-4)GlcNAc(b1-6)]GalNAc
Method in brief: as §1

[33] = target: Fuc(a1-2)[Gal(a1-3)]Gal(b1-4)GlcNAc(b1-6)GalNAc
Method in brief: as §1

[34] = target: Fuc(a1-2)[Gal(a1-3)]Gal(b1-4)[Fuc(a1-3)]Glc
Method in brief: as §1

[35] = target: Fuc(a1-2)[Gal(a1-3)]Gal(b1-4)[Fuc(a1-3)]GlcNAc
Method in brief: as §1

[36] = target: Fuc(a1-2)[Gal(a1-3)]Gal(b1-4)[Fuc(a1-3)]GlcNAc(b1-3)GalNAc
Method in brief: as §1

[37] = target: Fuc(a1-2)[Gal(a1-4)]Gal(b1-4)GlcNAc
Method in brief: as §1

[38] = target: Fuc(a1-2)[GalNAc(a1-3)]Gal
Method in brief: as §1

[39] = target: Fuc(a1-2)[GalNAc(a1-3)]Gal(b1-3)GalNAc(a1-3)[Fuc(a1-2)]Gal(b1-4)GlcNAc
Method in brief: as §1

[40] = target: Fuc(a1-2)[GalNAc(a1-3)]Gal(b1-3)GalNAc(b1-3)Gal(a1-4)Gal(b1-4)Glc
Method in brief: as §1

[41] = target: Fuc(a1-2)[GalNAc(a1-3)]Gal(b1-3)GlcNAc
Method in brief: as §1

[42] = target: Fuc(a1-2)[GalNAc(a1-3)]Gal(b1-3)GlcNAc(b1-2)Man(a1-3)[Fuc(a1-2)[GalNAc(a1-3)]Gal(b1-3)GlcNAc(b1-2)Man(a1-6)]Man(b1-4)GlcNAc(b1-4)GlcNAc
Method in brief: as §1

[43] = target: Fuc(a1-2)[GalNAc(a1-3)]Gal(b1-3)GlcNAc(b1-2)Man(a1-3)[Fuc(a1-2)[GalNAc(a1-3)]Gal(b1-3)GlcNAc(b1-2)Man(a1-6)]Man(b1-4)GlcNAc(b1-4)[Fuc(a1-6)]GlcNAc
Method in brief: as §1

B1: Actd5 (Actinidia), P84527 (protein)
chain: ISSCNGPCRDLNDCDGQLICIKGKCNDDPQVGTHICRGTTHSHQPGGCKPSGTLTCRGKSYPTYDCSPPVTSSTPAKLTNNDFSEGGDDGGPSECDESYHNNNERIVALSTGWYNGGSRCGKMIRITASNGKSVSAKVVDECDSRHGCDKEHAGQPPCRNNIVDGSNAVWSALGLDKNVGVVDITWSMA
In the case of B1, the “glycan array binding signal (z-score)” value [1] is reported as 1.65, the “glycan array binding signal (z-score)” value [2] is reported as 0.175 and the “glycan array binding signal (z-score)” value [3] is reported as -0.145. For the same binder, the “glycan array binding signal (z-score)” value [4] was -0.922, the “glycan array binding signal (z-score)” value [5] was 0.273 and the “glycan array binding signal (z-score)” value [6] was -0.774. For the same binder, the “glycan array binding signal (z-score)” value [7] was -0.666, the “glycan array binding signal (z-score)” value [8] was -0.268 and the “glycan array binding signal (z-score)” value [9] was 1.25. The “glycan array binding signal (z-score)” value [10] was 2.12, the “glycan array binding signal (z-score)” value [11] was -0.124 and the “glycan array binding signal (z-score)” value [12] was 0.593. The “glycan array binding signal (z-score)” value [13] was 0.867, the “glycan array binding signal (z-score)” value [14] was -0.626 and the “glycan array binding signal (z-score)” value [15] was -0.723. The “glycan array binding signal (z-score)” value [16] was 0.034, the “glycan array binding signal (z-score)” value [17] was 0.319 and the “glycan array binding signal (z-score)” value (Fuc(a1-2)Gal6S(b1-4)Glc) was -0.725. For the same binder, the “glycan array binding signal (z-score)” value [18] was -1.15, the “glycan array binding signal (z-score)” value (Fuc(a1-2)[Gal(a1-3)]Gal) was -0.828 and the “glycan array binding signal (z-score)” value [19] was 0.128. The “glycan array binding signal (z-score)” value [20] was 0.089, the “glycan array binding signal (z-score)” value [21] was 0.298 and the “glycan array binding signal (z-score)” value [22] was -0.123. For the same binder, the “glycan array binding signal (z-score)” value [23] was 1.77, the “glycan array binding signal (z-score)” value [24] was -0.885 and the “glycan array binding signal (z-score)” value [25] was 0.274. For the same binder, the “glycan array binding signal (z-score)” value [26] was 0.887, the “glycan array binding signal (z-score)” value [27] was 0.12 and the “glycan array binding signal (z-score)” value [28] was 0.103. For the same binder, the “glycan array binding signal (z-score)” value [29] was -0.803, the “glycan array binding signal (z-score)” value [30] was 0.194 and the “glycan array binding signal (z-score)” value [31] was -0.186. The “glycan array binding signal (z-score)” value [32] was 0.322, the “glycan array binding signal (z-score)” value [33] was -0.272 and the “glycan array binding signal (z-score)” value [34] was 0.062. The “glycan array binding signal (z-score)” value [35] was 0.914, the “glycan array binding signal (z-score)” value [36] was 0.082 and the “glycan array binding signal (z-score)” value [37] was 1.45. The “glycan array binding signal (z-score)” value [38] was -0.602, the “glycan array binding signal (z-score)” value [39] was 0.442 and the “glycan array binding signal (z-score)” value [40] was -0.038. The “glycan array binding signal (z-score)” value [41] was 0.172, the “glycan array binding signal (z-score)” value [42] was 0.017 and the “glycan array binding signal (z-score)” value [43] was 1.21.
